# Primary screen of a compound library

Source: ChEMBL document CHEMBL3988442, “University of Dundee, Small-Polar-MMV Screening Library” (2021).

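Assay of Toxoplasma gondii numbers, read through their beta-galactosidase reporter with a colour substrate. Tested at 50 µM. The record gives no direction; the compounds picked for IC50 retests had high values, so higher reads as fewer parasites. Size under these conditions: about 18,000 compounds, about 170 of them at 50% or above in at least one test.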

Results are given as percent effect. The controls that fix the scale are not given in the record; negative values are as filed. The compounds are a random part of those screened.

With Nc1nnc(SCCN2CCCCC2)[nH]1 the screen gave 2.019%. CSCC(C)(O)CNC(=O)Nc1cc(C)on1 (stereo not drawn) read -11.95%. COCCNCc1scnc1C gave 2.24%. With O=C1CCCCN1Cn1cnc2c(Br)cccc2c1=O the screen gave -5.958%. CCNC(=O)C1CCN(Cc2cc(C)no2)CC1 gave 31.77%.

Cc1n[nH]c(C)c1CNCC(=O)N1CCCC1 read -4.079%. With CCN1CCN(c2ccc(NC(=O)C(C)C)cc2)CC1 the screen gave 4.412%. CCN(CC)C(=O)CCNC(=O)NC1(C)CCC1 read -0.2862%. With CN1CC2(CCN(C(=O)c3cccs3)CC2)OCC1=O the screen gave -9.605%. CCC(=O)N1CCN(CCCN2CCCCC2)CC1 gave 9.795%.

Result for Cc1cc(C(=O)N(C)CCNS(C)(=O)=O)c(C)o1 was -5.359%. For CCCN1CCN(C(=O)Nc2ccc(OC)cc2)CC1 the result was -19.25%. With O=C(c1cnc[nH]1)N1CCCN(C2CCCC2)CC1 the screen gave 19.96%. With CSCCC(OC(=O)c1ccc(F)cc1)C(N)=O (stereo not drawn) the screen gave -7.569%. Result for CNC(=O)[C@@H]1CSCN1c1ccc(C(F)(F)F)cn1 was 98.68%.

Cc1ccccc1C(C)NC(=O)CN1CSCC1=O (stereo not drawn) read -3.7%. O=C1CCC(CO)(c2ccccc2)CN1 (stereo not drawn) gave -3.332%. COCCNC(=O)NCCc1ccc(C)c(OC)c1 read 1.266%. Result for CC1(C(F)F)CNCCO1 (stereo not drawn) was -13.9%. COCCCOc1cc(C)ccc1CN read -20.96%.

CC(N)CCN1CCN(C)CC1 (stereo not drawn) gave 12.01%. Result for CC(=O)c1cnccc1C was 23.38%. COc1ccccc1CNCCSc1nnnn1C read 7.037%. For COC(=O)Cc1ccc2c(c1)CCN2 the result was 8.12%. CN(C)c1ncc(CNC(=O)C2CCC2)n1C read -1.514%.

COCCn1cncc1CNC(=O)c1ccc(C)s1 read -2.828%. CNC(=O)C(C)(O)CN1Cc2ccccc2C1=O (stereo not drawn) read -10.11%. For CN(C)C(=O)N[C@@H]1CN[C@H](CO)C1 the result was 6.834%. For CSCCCN1CCC(C(=O)NC2CC2)CC1 the result was 3.241%. Brc1cnn(CC2CCNCC2)c1 gave 4.366%.

Result for Cn1nnnc1SCC(=O)Nc1ccc2c(c1)OCO2 was -2.759%. With CC(N)CN1CCN(c2ncccn2)CC1 (stereo not drawn) the screen gave -1.411%. For O=C(Cc1nc(-c2cccnc2)no1)NCC(F)(F)F the result was 30.3%. Cc1n[nH]cc1CNC(CS(C)(=O)=O)c1ccccc1 (stereo not drawn) gave -3.322%. For COCc1cc(C(C)=O)ccc1OC the result was -11.54%.

For CC(C)[C@H](N)C(=O)N1CCN(C2CC2)C(=O)C1 the result was 14.74%. COc1cccc(OC)c1CNC(C)=O read -7.563%. CN(C)C(=O)CN1CCC(O)CC1 read 6.252%. For O=C(NC1CCNC1=O)c1sc2cccc(F)c2c1Cl (stereo not drawn) the result was 15.16%. For Cc1cccc(C)c1NC(=O)CN1CCC(O)CC1 the result was 6.369%.

Result for CCN(CC)CC(=O)NCc1cc(O)nc(C)n1 was -10.18%.

5 of the entries, repeated:

Compound	effect
COc1cccc(OC)c1CNC(C)=O	-7.563%
COCCNCc1scnc1C	2.24%
CN(C)C(=O)CN1CCC(O)CC1	6.252%
CC(C)[C@H](N)C(=O)N1CCN(C2CC2)C(=O)C1	14.74%
Nc1nnc(SCCN2CCCCC2)[nH]1	2.019%